The target of experiment [1] is T1, IRF9 (interferon regulatory factor 9), endogenous (human (endogenous in HEK293T)) (UniProt Q00978).
T1 sequence: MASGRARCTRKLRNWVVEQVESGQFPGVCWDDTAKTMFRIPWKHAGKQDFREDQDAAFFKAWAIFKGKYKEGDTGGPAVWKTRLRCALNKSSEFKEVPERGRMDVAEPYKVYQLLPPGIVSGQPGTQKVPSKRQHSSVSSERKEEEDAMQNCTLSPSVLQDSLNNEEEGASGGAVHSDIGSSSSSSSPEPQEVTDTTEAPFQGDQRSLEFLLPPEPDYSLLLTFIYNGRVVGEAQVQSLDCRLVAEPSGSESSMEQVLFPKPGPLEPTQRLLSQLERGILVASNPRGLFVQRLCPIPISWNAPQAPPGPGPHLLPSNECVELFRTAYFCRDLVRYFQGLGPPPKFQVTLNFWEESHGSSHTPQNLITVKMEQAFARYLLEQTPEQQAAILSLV
Briefly: co-IP.

Experiment [2] has as its target T2, Flag-GFP-tagged IRF9 (F-G-IRF9) (human) (UniProt Q00978).
T2 sequence: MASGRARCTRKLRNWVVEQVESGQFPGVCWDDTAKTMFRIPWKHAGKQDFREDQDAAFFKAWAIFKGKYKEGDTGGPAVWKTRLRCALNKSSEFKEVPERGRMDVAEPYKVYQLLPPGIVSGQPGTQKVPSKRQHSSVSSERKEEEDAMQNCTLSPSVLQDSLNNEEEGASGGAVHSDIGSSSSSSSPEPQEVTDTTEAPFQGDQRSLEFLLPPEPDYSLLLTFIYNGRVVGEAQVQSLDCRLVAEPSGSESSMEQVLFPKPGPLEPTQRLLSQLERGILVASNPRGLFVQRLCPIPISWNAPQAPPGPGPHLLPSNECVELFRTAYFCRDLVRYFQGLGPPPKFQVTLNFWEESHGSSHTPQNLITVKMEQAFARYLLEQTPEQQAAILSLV
Kind of experiment: co-IP.

No constants are given. Whether binding was seen depends on the method and setting. In cells and extracts the contact can be indirect. Some binding calls cover weakened binding; strength is not graded here. For some assays here: Tags and fused reporters may be left off the sequences shown.

B1: PTP1B, endogenous (enzyme, UniProt P18031 1-435)
chain: MEMEKEFEQIDKSGSWAAIYQDIRHEASDFPCRVAKLPKNKNRNRYRDVSPFDHSRIKLHQEDNDYINASLIKMEEAQRSYILTQGPLPNTCGHFWEMVWEQKSRGVVMLNRVMEKGSLKCAQYWPQKEEKEMIFEDTNLKLTLISEDIKSYYTVRQLELENLTTQETREILHFHYTTWPDFGVPESPASFLNFLFKVRESGSLSPEHGPVVVHCSAGIGRSGTFCLADTCLLLMDKRKDPSSVDIKKVLLEMRKFRMGLIQTADQLRFSYLAVIEGAKFIMGDSSVQDQWKELSHEDLEPPPEHIPPPPRPPKRILEPHNGKCREFFPNHQWVKEETQEDKDCPIKEEKGSPLNAAPYGIESMSQDTEVRSRVVGGSLRGAQAASPAKGEPSLPEKDEDHALSYWKPFLVNMCVATVLTAGAYLCYRFLFNSNT
Take B1: the binding result in experiment [1] and in experiment [2] was “binds” throughout.

These data come from publication doi:10.1101/2024.06.14.24308555.
